Entries after “also recorded” stand apart in the source; their conditions may differ. At least one structure is not confirmed: it was looked up by name or label, or the drawing left a doubt.
Test system: Balb/c mice
Assay: DNFB irritant solution-induced cutaneous inflammation in mice pretreated with cream
Type: in vivo
Details: 0.5% DNFB

For `CC(=O)Nc1cccc(-n2c(=O)n(C3CC3)c(=O)c3c(Nc4ccc(I)cc4F)n(C)c(=O)c(C)c32)c1` [trametinib, Trametinib], the “Irritation (red skin mark) caused by irritant solution” value (spots pretreated daily for five days with cream containing 0.1 mg/ml trametinib, 7 hours) was “absent”, the “Inflammatory response to irritant solution (H&E histology)” value (spots pretreated with cream containing trametinib vs vehicle-treated spots) was “strongly reduced” and the “Accumulation of immune cells below the epidermis (H&E histology)” value (spots pretreated with cream containing trametinib) was “did not occur; also recorded: absence of such accumulation”.
